The text below walks through data of PMC11929268.

Results are given in words; binding and its absence hold for the method and conditions named. In cells and extracts the contact can be indirect. Some results given as binding are weak or reduced against the parent protein; the word gives no strength. Sequences can lack the tags named with a protein.

In assay [1] the target is T1, TJP2 variant p.T636R with ECFP or EYFP fused to the C-terminus (human) (UniProt Q9UDY2).
T1 sequence: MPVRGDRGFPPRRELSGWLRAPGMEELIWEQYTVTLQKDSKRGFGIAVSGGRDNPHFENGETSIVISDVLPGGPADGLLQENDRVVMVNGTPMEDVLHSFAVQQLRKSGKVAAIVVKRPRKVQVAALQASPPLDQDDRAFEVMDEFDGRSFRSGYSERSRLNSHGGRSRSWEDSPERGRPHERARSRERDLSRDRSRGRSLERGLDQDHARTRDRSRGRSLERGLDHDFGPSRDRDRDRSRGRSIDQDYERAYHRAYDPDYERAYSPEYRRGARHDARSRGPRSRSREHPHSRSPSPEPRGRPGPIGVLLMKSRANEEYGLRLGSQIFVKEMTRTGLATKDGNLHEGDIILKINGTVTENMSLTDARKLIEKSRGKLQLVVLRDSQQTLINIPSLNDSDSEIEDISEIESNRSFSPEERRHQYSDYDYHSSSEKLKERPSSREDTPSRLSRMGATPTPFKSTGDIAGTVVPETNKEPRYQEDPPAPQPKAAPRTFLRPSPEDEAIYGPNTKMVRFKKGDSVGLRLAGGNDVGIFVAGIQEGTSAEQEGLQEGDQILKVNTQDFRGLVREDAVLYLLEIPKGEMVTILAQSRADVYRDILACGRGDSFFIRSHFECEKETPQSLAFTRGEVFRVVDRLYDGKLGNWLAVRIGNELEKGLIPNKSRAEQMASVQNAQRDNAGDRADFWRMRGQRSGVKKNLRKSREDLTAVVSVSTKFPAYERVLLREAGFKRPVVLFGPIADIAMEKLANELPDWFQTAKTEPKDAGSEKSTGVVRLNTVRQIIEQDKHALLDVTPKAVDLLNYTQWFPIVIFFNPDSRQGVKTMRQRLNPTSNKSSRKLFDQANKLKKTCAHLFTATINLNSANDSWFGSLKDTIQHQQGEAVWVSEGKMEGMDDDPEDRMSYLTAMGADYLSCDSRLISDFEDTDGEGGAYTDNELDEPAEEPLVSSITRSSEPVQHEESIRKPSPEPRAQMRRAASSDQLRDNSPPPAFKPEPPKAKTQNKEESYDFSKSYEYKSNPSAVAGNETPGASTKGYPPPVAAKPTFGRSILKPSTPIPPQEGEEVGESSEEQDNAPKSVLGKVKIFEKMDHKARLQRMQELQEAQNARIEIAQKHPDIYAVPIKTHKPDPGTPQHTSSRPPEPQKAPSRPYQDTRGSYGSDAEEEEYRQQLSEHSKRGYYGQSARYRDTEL
Briefly: FRET or BRET; acceptor photobleaching FRET in fixed HEK 293 Phoenix cells co-transfected with the ECFP (donor) and EYFP (acceptor) fusions, 30 h after transfection, 4% paraformaldehyde, imaged in HBSS at room temperature by confocal microscopy. On the technique in general: Bioluminescence resonance energy transfer reports proximity on the nanometre scale.

The target in assay [2] is T2, wild-type tight junction protein 2 (TJP2) with ECFP or EYFP fused to the C-terminus (human) (UniProt Q9UDY2).
T2 sequence: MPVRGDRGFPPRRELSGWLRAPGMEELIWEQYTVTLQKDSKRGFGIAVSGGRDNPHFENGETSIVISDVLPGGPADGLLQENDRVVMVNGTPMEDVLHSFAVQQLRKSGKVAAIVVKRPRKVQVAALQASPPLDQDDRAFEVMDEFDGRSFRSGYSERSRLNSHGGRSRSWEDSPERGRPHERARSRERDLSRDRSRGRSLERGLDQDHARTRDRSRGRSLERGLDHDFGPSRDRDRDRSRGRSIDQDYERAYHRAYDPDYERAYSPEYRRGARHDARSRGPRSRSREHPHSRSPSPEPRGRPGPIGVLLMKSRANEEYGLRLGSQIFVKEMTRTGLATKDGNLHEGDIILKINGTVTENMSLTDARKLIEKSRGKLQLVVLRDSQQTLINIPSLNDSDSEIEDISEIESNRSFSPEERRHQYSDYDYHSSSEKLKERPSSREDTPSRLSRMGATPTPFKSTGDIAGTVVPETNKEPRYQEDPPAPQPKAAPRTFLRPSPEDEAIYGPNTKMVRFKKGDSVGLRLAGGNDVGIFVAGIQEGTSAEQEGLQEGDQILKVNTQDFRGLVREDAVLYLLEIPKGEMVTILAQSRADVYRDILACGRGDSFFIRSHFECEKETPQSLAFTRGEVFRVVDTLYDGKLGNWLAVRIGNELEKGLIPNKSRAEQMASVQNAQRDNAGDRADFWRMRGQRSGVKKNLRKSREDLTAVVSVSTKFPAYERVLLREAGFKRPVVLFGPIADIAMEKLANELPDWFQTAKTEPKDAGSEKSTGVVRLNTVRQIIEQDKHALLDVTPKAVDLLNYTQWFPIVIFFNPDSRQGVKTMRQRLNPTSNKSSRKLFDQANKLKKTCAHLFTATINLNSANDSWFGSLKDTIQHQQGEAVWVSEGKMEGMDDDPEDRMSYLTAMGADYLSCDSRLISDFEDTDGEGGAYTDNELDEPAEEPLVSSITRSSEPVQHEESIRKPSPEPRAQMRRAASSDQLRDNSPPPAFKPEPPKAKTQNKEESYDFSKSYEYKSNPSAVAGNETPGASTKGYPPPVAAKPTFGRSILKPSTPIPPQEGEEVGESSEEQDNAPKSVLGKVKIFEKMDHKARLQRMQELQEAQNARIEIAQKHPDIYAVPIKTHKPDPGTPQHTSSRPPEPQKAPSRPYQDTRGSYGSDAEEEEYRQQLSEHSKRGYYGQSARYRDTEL
The assay is described as above.

B1: wild-type tight junction protein 2 (TJP2) with ECFP or EYFP fused to the C-terminus (protein, UniProt Q9UDY2-1 1-1190)
chain: MPVRGDRGFPPRRELSGWLRAPGMEELIWEQYTVTLQKDSKRGFGIAVSGGRDNPHFENGETSIVISDVLPGGPADGLLQENDRVVMVNGTPMEDVLHSFAVQQLRKSGKVAAIVVKRPRKVQVAALQASPPLDQDDRAFEVMDEFDGRSFRSGYSERSRLNSHGGRSRSWEDSPERGRPHERARSRERDLSRDRSRGRSLERGLDQDHARTRDRSRGRSLERGLDHDFGPSRDRDRDRSRGRSIDQDYERAYHRAYDPDYERAYSPEYRRGARHDARSRGPRSRSREHPHSRSPSPEPRGRPGPIGVLLMKSRANEEYGLRLGSQIFVKEMTRTGLATKDGNLHEGDIILKINGTVTENMSLTDARKLIEKSRGKLQLVVLRDSQQTLINIPSLNDSDSEIEDISEIESNRSFSPEERRHQYSDYDYHSSSEKLKERPSSREDTPSRLSRMGATPTPFKSTGDIAGTVVPETNKEPRYQEDPPAPQPKAAPRTFLRPSPEDEAIYGPNTKMVRFKKGDSVGLRLAGGNDVGIFVAGIQEGTSAEQEGLQEGDQILKVNTQDFRGLVREDAVLYLLEIPKGEMVTILAQSRADVYRDILACGRGDSFFIRSHFECEKETPQSLAFTRGEVFRVVDTLYDGKLGNWLAVRIGNELEKGLIPNKSRAEQMASVQNAQRDNAGDRADFWRMRGQRSGVKKNLRKSREDLTAVVSVSTKFPAYERVLLREAGFKRPVVLFGPIADIAMEKLANELPDWFQTAKTEPKDAGSEKSTGVVRLNTVRQIIEQDKHALLDVTPKAVDLLNYTQWFPIVIFFNPDSRQGVKTMRQRLNPTSNKSSRKLFDQANKLKKTCAHLFTATINLNSANDSWFGSLKDTIQHQQGEAVWVSEGKMEGMDDDPEDRMSYLTAMGADYLSCDSRLISDFEDTDGEGGAYTDNELDEPAEEPLVSSITRSSEPVQHEESIRKPSPEPRAQMRRAASSDQLRDNSPPPAFKPEPPKAKTQNKEESYDFSKSYEYKSNPSAVAGNETPGASTKGYPPPVAAKPTFGRSILKPSTPIPPQEGEEVGESSEEQDNAPKSVLGKVKIFEKMDHKARLQRMQELQEAQNARIEIAQKHPDIYAVPIKTHKPDPGTPQHTSSRPPEPQKAPSRPYQDTRGSYGSDAEEEEYRQQLSEHSKRGYYGQSARYRDTEL
For the molecule B1, the binding entry in assay [1] and in assay [2] was “binds” throughout.

B2: TJP2 variant p.T636R with ECFP or EYFP fused to the C-terminus (protein, UniProt Q9UDY2-1 1-1190)
chain: MPVRGDRGFPPRRELSGWLRAPGMEELIWEQYTVTLQKDSKRGFGIAVSGGRDNPHFENGETSIVISDVLPGGPADGLLQENDRVVMVNGTPMEDVLHSFAVQQLRKSGKVAAIVVKRPRKVQVAALQASPPLDQDDRAFEVMDEFDGRSFRSGYSERSRLNSHGGRSRSWEDSPERGRPHERARSRERDLSRDRSRGRSLERGLDQDHARTRDRSRGRSLERGLDHDFGPSRDRDRDRSRGRSIDQDYERAYHRAYDPDYERAYSPEYRRGARHDARSRGPRSRSREHPHSRSPSPEPRGRPGPIGVLLMKSRANEEYGLRLGSQIFVKEMTRTGLATKDGNLHEGDIILKINGTVTENMSLTDARKLIEKSRGKLQLVVLRDSQQTLINIPSLNDSDSEIEDISEIESNRSFSPEERRHQYSDYDYHSSSEKLKERPSSREDTPSRLSRMGATPTPFKSTGDIAGTVVPETNKEPRYQEDPPAPQPKAAPRTFLRPSPEDEAIYGPNTKMVRFKKGDSVGLRLAGGNDVGIFVAGIQEGTSAEQEGLQEGDQILKVNTQDFRGLVREDAVLYLLEIPKGEMVTILAQSRADVYRDILACGRGDSFFIRSHFECEKETPQSLAFTRGEVFRVVDRLYDGKLGNWLAVRIGNELEKGLIPNKSRAEQMASVQNAQRDNAGDRADFWRMRGQRSGVKKNLRKSREDLTAVVSVSTKFPAYERVLLREAGFKRPVVLFGPIADIAMEKLANELPDWFQTAKTEPKDAGSEKSTGVVRLNTVRQIIEQDKHALLDVTPKAVDLLNYTQWFPIVIFFNPDSRQGVKTMRQRLNPTSNKSSRKLFDQANKLKKTCAHLFTATINLNSANDSWFGSLKDTIQHQQGEAVWVSEGKMEGMDDDPEDRMSYLTAMGADYLSCDSRLISDFEDTDGEGGAYTDNELDEPAEEPLVSSITRSSEPVQHEESIRKPSPEPRAQMRRAASSDQLRDNSPPPAFKPEPPKAKTQNKEESYDFSKSYEYKSNPSAVAGNETPGASTKGYPPPVAAKPTFGRSILKPSTPIPPQEGEEVGESSEEQDNAPKSVLGKVKIFEKMDHKARLQRMQELQEAQNARIEIAQKHPDIYAVPIKTHKPDPGTPQHTSSRPPEPQKAPSRPYQDTRGSYGSDAEEEEYRQQLSEHSKRGYYGQSARYRDTEL
As for B2, the binding entry in assay [1] is reported as “no binding”; in assay [2], “binds”.
